Laboratory results from paper PMC3990526.
Results are given in words; binding and its absence hold for the method and conditions named.

Sequences of proteins named here, by UniProt entry; tags and fusion partners are left off. Residues count along the entry.
UniProt P13688, residues 35-526: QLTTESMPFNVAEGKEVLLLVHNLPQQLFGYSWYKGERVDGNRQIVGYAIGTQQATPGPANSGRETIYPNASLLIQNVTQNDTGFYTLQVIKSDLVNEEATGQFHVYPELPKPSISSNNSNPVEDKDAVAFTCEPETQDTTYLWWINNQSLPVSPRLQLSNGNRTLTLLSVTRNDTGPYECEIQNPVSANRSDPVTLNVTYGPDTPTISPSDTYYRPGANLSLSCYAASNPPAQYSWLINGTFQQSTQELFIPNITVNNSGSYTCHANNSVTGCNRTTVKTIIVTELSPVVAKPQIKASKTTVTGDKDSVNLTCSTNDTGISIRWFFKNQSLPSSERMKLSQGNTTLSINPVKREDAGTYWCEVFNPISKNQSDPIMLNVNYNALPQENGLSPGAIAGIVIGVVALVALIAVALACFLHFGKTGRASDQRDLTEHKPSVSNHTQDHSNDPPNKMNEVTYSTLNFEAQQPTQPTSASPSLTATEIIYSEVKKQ
UniProt P16573, residues 35-425: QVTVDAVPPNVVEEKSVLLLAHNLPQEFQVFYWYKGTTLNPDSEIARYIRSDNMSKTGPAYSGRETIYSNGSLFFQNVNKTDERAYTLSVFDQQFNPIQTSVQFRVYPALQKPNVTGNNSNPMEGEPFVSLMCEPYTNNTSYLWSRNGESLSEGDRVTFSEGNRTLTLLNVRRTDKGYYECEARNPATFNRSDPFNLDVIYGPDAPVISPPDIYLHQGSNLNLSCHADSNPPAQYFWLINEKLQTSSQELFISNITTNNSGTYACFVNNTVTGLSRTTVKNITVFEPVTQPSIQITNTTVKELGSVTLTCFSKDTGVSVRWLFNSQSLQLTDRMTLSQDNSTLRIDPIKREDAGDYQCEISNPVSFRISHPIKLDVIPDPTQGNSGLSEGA

Molecular target: human CEACAM1-4L on stably transfected A549 cells (human) (UniProt P13688)
Test: ELISA; cell-based ELISA: sparse monolayers of A549-CEACAM1-4L cells in 96-well plates; Fc protein in cell culture medium added for 2 h on ice; detected with HRP-coupled goat anti human-Fc pAb; absorbance at 450 nm; triplicates; only the binder purified

For “rat CEACAM1-Fc (from UniProt P16573 35-425) (Fc fusion)”, the binding was “no binding (tested: 10 µg/ml)”.
